From patent US4379148A, “Analgesic and anti-inflammatory composition” (priority 1981, dated 1983)

Assay: in vivo
Details: mouse, po

## COc1ccc2cc([C@H](C)C(=O)O)ccc2c1 [Naproxen]
  LD50 at 168 h: 1180 mg/kg
LD50 dose obtained experimentally, with emorfazone 240, p.o., combined with emorfazone 240 mg/kg
  LD50 at 168 h: 1200 mg/kg
